# Some of the results follow. Single values are uncertain, as repeats are few or missing.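 Cells were imaged in 1,536-well plates, and nuclei stained with an antibody against cleaved PARP were counted against all DNA-stained nuclei to give the apoptosis fraction. Screening doses were chosen to leave most cells alive, and resting and induced cleaved-PARP levels differ strongly between cell lines.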
# System: C32
# Test: cleaved PARP positive nuclei fraction relative to DMSO control; melanoma cells; higher = more apoptosis
# Conditions: library dose: low library concentration; 72 h
row,Compound,cleaved PARP positive nuclei fraction [%]
1,"CC(=O)c1c(C)c2cnc(Nc3ccc(N4CCNCC4)cn3)nc2n(C2CCCC2)c1=O [palbociclib] + COc1cc(Nc2ncc(F)c(Nc3ccc4c(n3)NC(=O)C(C)(C)O4)n2)cc(OC)c1OC [Tamatinib] (first compound 0.04 µM, partner dose 0.4 µM)",114
2,"CO[C@@H]1[C@H](N(C)C(=O)c2ccccc2)C[C@H]2O[C@]1(C)n1c3ccccc3c3c4c(c5c6ccccc6n2c5c31)C(=O)NC4 [Midostaurin] + CN(NC(=O)CC(=O)NN(C)C(=S)c1ccccc1)C(=S)c1ccccc1 [STA4783] (first compound 0.08 µM, partner dose 0.006 µM)",373
3,"Cc1cc(N2CCOCC2)cc2[nH]c(-c3c(NC[C@@H](O)c4cccc(Cl)c4)cc[nH]c3=O)nc12 + CC(C)CCN1c2nc(Nc3cc(F)c(O)c(F)c3)ncc2N(C)C(=O)C1C [BID1870] (first compound 0.2 µM, partner dose 0.2 µM)",120
4,"Nc1cccc2c1CN(C1CCC(=O)NC1=O)C2=O (stereo not drawn) [lenalidomide] + COc1cc2c(Oc3ccc4[nH]c(C)cc4c3F)ncnc2cc1OCCCN1CCCC1 [cediranib] (first compound 1 µM, partner dose 0.4 µM)",137
5,"CC(C)(C)c1cnc(CSc2cnc(NC(=O)C3CCNCC3)s2)o1 + O=S(=O)(c1ccccc1)N(CC(F)(F)F)c1ccc(C(O)(C(F)(F)F)C(F)(F)F)cc1 [T0901317] (first compound 0.01 µM, partner dose 1.4 µM)",65.8
6,"OCc1c[nH]c2ccccc12 [Indole-3-carbinol] + NCC(=O)Nc1ccc(-n2nc(C(F)(F)F)cc2-c2ccc3c(ccc4ccccc43)c2)cc1 [OSU03012] (first compound 0.8 µM, partner dose 1 µM)",99.6
7,"C[C@]1(c2nc3c(C(N)=O)cccc3[nH]2)CCCN1 [Veliparib] + O=c1cc(-c2cccc3c2Sc2ccccc2S3)oc(N2CCOCC2)c1 [KU55933] (first compound 1.4 µM, partner dose 1 µM)",28.6
8,"CC(C)(C)c1cnc(CSc2cnc(NC(=O)C3CCNCC3)s2)o1 + COc1cc2ncnc(Nc3ccc(Oc4ccccc4)cc3)c2cc1OC [SrcI1] (first compound 0.01 µM, partner dose 2 µM)",76.9
9,"C#Cc1cccc(Nc2ncnc3cc(OCCOC)c(OCCOC)cc23)c1 [erlotinib] + OCCn1cc(-c2cnc3nnn(Cc4ccc5ncccc5c4)c3n2)cn1 [PF04217903] (first compound 0.8 µM, partner dose 1 µM)",166
10,"Cn1nnc2c(C(N)=O)ncn2c1=O [temozolomide] + Oc1nc(-c2ccc(C(F)(F)F)cc2)nc2c1CSCC2 [XAV939] (first compound 2 µM, partner dose 2 µM)",83.3
11,"COCC[n+]1c2c(n(Cc3cnccn3)c1C)C(=O)c1ccccc1C2=O + CN(C)S(=O)(=O)c1ccc2c(c1)/C(=C/c1cc3c([nH]1)CCCC3)C(=O)N2 [SU6656] (first compound 0.0004 µM, partner dose 0.4 µM)",231
12,"C=CCn1c(=O)c2cnc(Nc3ccc(N4CCN(C)CC4)cc3)nc2n1-c1cccc(C(C)(C)O)n1 + CN(NC(=O)CC(=O)NN(C)C(=S)c1ccccc1)C(=S)c1ccccc1 [STA4783] (first compound 0.02 µM, partner dose 0.006 µM)",711
13,"C=CCNC1=C2C[C@@H](C)C[C@H](OC)[C@H](O)[C@@H](C)/C=C(\C)[C@H](OC(N)=O)[C@@H](OC)/C=C\C=C(/C)C(=O)NC(=CC1=O)C2=O [Tanespimycin] + COc1ccc(-c2ccc3c(N4CCOCC4)nc(N4C[C@@H](C)O[C@@H](C)C4)nc3n2)cc1CO [KU0063794] (first compound 0.002 µM, partner dose 0.02 µM)",87.6
14,"Cc1ccc(NC(=O)c2cccc(N(C)C)c2)cc1NC(=O)c1ccc(O)cc1 + Oc1cc(-c2nc(-c3ccccc3)[nH]c2-c2ccncc2)ccc1Cl [L779450] (first compound 2 µM, partner dose 0.2 µM)",98.1
15,"Cn1nnc2c(C(N)=O)ncn2c1=O [temozolomide] + CCN(CC)CCCCNc1ncc2cc(-c3cc(OC)cc(OC)c3)c(NC(=O)NC(C)(C)C)nc2n1 [PD173074] (first compound 2 µM, partner dose 0.1 µM)",140
16,"CC(=O)c1c(C)c2cnc(Nc3ccc(N4CCNCC4)cn3)nc2n(C2CCCC2)c1=O [palbociclib] + COc1ccc(COc2ccc(Cc3cnc(N)nc3N)cc2OC)cc1 [GW2580] (first compound 0.04 µM, partner dose 1 µM)",141
17,"C[C@]1(c2nc3c(C(N)=O)cccc3[nH]2)CCCN1 [Veliparib] + COc1cc2c(Oc3ccc4[nH]c(C)cc4c3F)ncnc2cc1OCCCN1CCCC1 [cediranib] (first compound 1.4 µM, partner dose 0.4 µM)",115
18,"C=CCn1c(=O)c2cnc(Nc3ccc(N4CCN(C)CC4)cc3)nc2n1-c1cccc(C(C)(C)O)n1 + OCCn1cc(-c2cnc3nnn(Cc4ccc5ncccc5c4)c3n2)cn1 [PF04217903] (first compound 0.02 µM, partner dose 1 µM)",116

# Pulled one by one from above (2):
row,Compound,cleaved PARP positive nuclei fraction [%]
14,"Cc1ccc(NC(=O)c2cccc(N(C)C)c2)cc1NC(=O)c1ccc(O)cc1 + Oc1cc(-c2nc(-c3ccccc3)[nH]c2-c2ccncc2)ccc1Cl [L779450] (first compound 2 µM, partner dose 0.2 µM)",98.1
12,"C=CCn1c(=O)c2cnc(Nc3ccc(N4CCN(C)CC4)cc3)nc2n1-c1cccc(C(C)(C)O)n1 + CN(NC(=O)CC(=O)NN(C)C(=S)c1ccccc1)C(=S)c1ccccc1 [STA4783] (first compound 0.02 µM, partner dose 0.006 µM)",711

# Reference: the supplement of paper PMC4604168 (melanoma cell lines)
